Experiment: general procedure: Fmoc solid-phase peptide synthesis; rink amide resin
Conditions: conjugation step, overall, TFA salt

Des-Lys 1-Cmpd 4-PEG40K-Mal
conjugation yield: 64.5% yield
